# Primary screen of a compound library

Measurements from “University of Dundee, Small-Polar-MMV Screening Library” (2021), ChEMBL document CHEMBL3988442.

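Viability assay of Plasmodium falciparum sporozoites; the read-out is not stated. The concentration is filed as 10 mM, unlikely as a test dose, so the dose is not known. The record gives no direction; compounds that gave an IC50 in retests scored well above the rest, so higher reads as lower viability. Strong results were mostly tested again. About 34,000 compounds were tested under these conditions; 0.84% (about 280) showed 50% or more at least once.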

Each number is a percent effect as filed.
The record does not define 0% and 100%; most values in the screen are far below 50% and negative numbers occur (in some assays of this library far below -100).
Compounds were drawn at random from those tested, without regard to their results.
Two or more numbers in one place are separate tests of the same structure; such repeats can differ widely.

compound	percent effect
CN1CC(=O)N(c2cnn(C)c2)CC12CCN(Cc1nccn1C)C2.O=C(O)C(F)(F)F.O=C(O)C(F)(F)F (stereo not drawn)	-4.21
CCc1n[nH]c(C2CN(Cc3nnc(C4CC4)n3C)CCO2)n1 (stereo not drawn)	-12.49
COC(=O)c1cccc(S(=O)(=O)NC(=O)COC2CCCC2)c1	6.246
O=C(c1ccoc1)N1CCc2c(COCC3CC3)cncc2C1	5.556
Cn1c(CN2CCCC(c3noc(C4CC4)n3)C2)cc(=O)n(C)c1=O (stereo not drawn)	3.089
CCC(NC(=O)C1CCN(S(C)(=O)=O)CC1)c1ccc(OC)c(OC)c1 (stereo not drawn)	-1.745
Cc1cc(C(=O)N2CCCC(C(=O)c3nccn3C)C2)c(=O)[nH]c1C (stereo not drawn)	-13.99
O=C(C1CCC2(CCN(CC3CCOCC3)CC2)O1)N1CCCCO1.O=C(O)C(F)(F)F (stereo not drawn)	11.98
CC(CNS(N)(=O)=O)Oc1cccc(Cl)c1 (stereo not drawn)	-13.91
CCNc1cc2c(nn1)CCN(C(=O)Cc1noc3ccccc13)C2	-2.689
COCc1csc(NC(=O)N2CCC(Cc3cnn(C)c3)C2)n1 (stereo not drawn)	14.06
O=C(O)C(F)(F)F.[H][C@@]12CCN(C(=O)c3cnoc3C)[C@@]1([H])CC(=O)N2Cc1cccnc1	7.626
CC(C)(C)n1ncc2c1CCCC2NCc1cccc2c1OCCO2 (stereo not drawn)	39.28 & 33.56 & 65.68
[H][C@@]12CCN(C(=O)C(C)C)CC[C@]1(C(=O)Nc1ccccc1)CCN2C	7.18
Cc1cc(F)c(C(C(=O)O)N2CCN(Cc3ccccn3)CC2)cc1Cl (stereo not drawn)	9.592
CCc1cccc(C)c1NC(=O)C1CC(=O)N(Cc2ccccn2)C1 (stereo not drawn)	-4.153
Cn1cc(CCNC(=O)NC2CCN(Cc3ccccn3)CC2)cn1	16.51
Cc1occc(=O)c1OCC(=O)N1CCN(c2cccc(Cl)c2)CC1	3.179
Cc1nccn1-c1nccnc1C1CCCN(C)C1 (stereo not drawn)	-6.545
Cc1cc(CNC(=O)NCc2cccs2)no1	4.489
CS(=O)(=O)c1cc(Cl)cnc1C1CCN(C(=O)C2CC2)CC1	-1.489
CN(C)c1cc(C2CCCN2C(=O)c2ccc(=O)n(C)c2)ccn1 (stereo not drawn)	7.635
O=C(O)C(F)(F)F.[H][C@]12CCN(C(=O)NC(C)C)C[C@@]1([H])OCCN(Cc1csc(C)n1)C2	-7.718
O=C(NCCNc1ccc(C(F)(F)F)cn1)c1cc(Cl)ccc1F	0.1701
COc1cc(N2CCC3(CCN(Cc4csc(C)n4)C3=O)C2)ncn1.O=C(O)C(F)(F)F (stereo not drawn)	2.977
Clc1ccc(C2(CNC3=NCCN3)CCCCC2)cc1.I	4.211
Cl.O=S1(=O)CCC(NCCn2cncc2-c2ccc3c(c2)CCCO3)C1 (stereo not drawn)	-8.887
O=C(CCc1nc2cc(Br)cnc2[nH]1)NCCN1CCOCC1	-17.35
COCCC(C)NC(=O)N1CCSC(C)(C)C1 (stereo not drawn)	1.669
COCCN1CCC(NCc2ccc(Cl)cc2)C1 (stereo not drawn)	22.33
COc1cccc(CNCc2nc3ccccc3c(=O)[nH]2)c1	3.684
CNS(=O)(=O)Cc1ccc(CNC(=O)c2ccc(C)[nH]c2=O)cc1	10.79
Cc1[nH]nc(CCC(=O)N2CCc3c(nc[nH]c3=O)C2)c1C	9.848
O=C(O)C(F)(F)F.O=C(O)C(F)(F)F.[H][C@]12CCN(c3ncccn3)[C@@]1([H])C[C@@H](C(=O)NCc1cccnc1)O2	6.51
CCC(=O)N1CCC2(CC1)C(=O)N(Cc1cccnc1)CCN2C.O=C(O)C(F)(F)F.O=C(O)C(F)(F)F	9.37
Cn1cccc1C(=O)N1CCn2nnc(COc3cccnc3)c2C1.O=C(O)C(F)(F)F	-4.162
CCN1CCC2(CCN(c3ncccn3)CC2)C1=O.O=C(O)C(F)(F)F	-3.069
CN(CC(=O)NCC(=O)Nc1ccc(F)cc1)Cc1cccs1	12.35
Cc1cc(-c2cnc(NC3CCCC3)nc2-c2ccc(C)o2)on1	10.73
CN(Cc1coc(-c2ccccc2)n1)CC1CCCN1c1cccnn1 (stereo not drawn)	-2.236
CCOC(=O)N1[C@@H](c2ccco2)[C@@H](C(=O)NC)C[C@]12CCCCNC2=O	-15.26
CCCC(NC(=O)c1cc(C)ccc1O)c1nnn[nH]1 (stereo not drawn)	-25.25
O=C(CCc1cscn1)N1CCCC1c1noc(C2CC2)n1 (stereo not drawn)	14.24
CC(C)n1ccc2c(NC(=O)c3n[nH]c4c3CCC4)cccc21	12.94 & -4.84 & -9.799
CC(C)CN1CCCC1c1cc[nH]n1 (stereo not drawn)	-2.123
CCc1nc(C2CCCN(C(=O)c3ccc(O)nc3)C2)no1 (stereo not drawn)	1.196 & -3.571 & -0.1689
[H][C@@]12C[C@@H](OC)C[C@]1([H])CN(C(=O)c1n[nH]c3c1CCCC3)C2	27.96
CC(C)n1cc(CN2CCCN(C(=O)C3CCOC3)CC2)cn1 (stereo not drawn)	19.44
CCNC(=O)N1CCc2ccc(NC(=O)NCCOCC)cc21	5.168 & 13.55
[H][C@@]12CCCO[C@]1([H])[C@@H](OCC1CCOCC1)CN2C(=O)c1ccnnc1	-9.035
COCCn1ccc2c(NC(=O)c3n[nH]c4c3CCCC4)cccc21	22.99 & 21.7 & 28.85
CNc1cc(C2CN(C(=O)c3cnn(C)c3)CCO2)nc(C)n1 (stereo not drawn)	0.9687
O=C1OCCC1N1CCN(c2ccc(O)cc2)CC1 (stereo not drawn)	15.68
CCOc1ccnc(N2CCN(C(=O)C(C)(C)C#N)CC2)n1	-11.17
Cc1cnn(CC2CCCCN2C(=O)Cc2c(C)nn(C)c2C)c1 (stereo not drawn)	-5.585
COCCN(C(=O)c1cc(-c2ccc(C)s2)[nH]n1)C1CC1	-2.514
COCC(O)CN1CCC(=O)N(Cc2ccco2)Cc2ccccc21 (stereo not drawn)	24.8
CNC(=O)C(CC(C)C)NC(=O)c1cccc(-c2n[nH]c(C)n2)c1 (stereo not drawn)	2.109
CSC1(CNC(=O)NCc2sccc2C)CCOCC1	-14.91 & -19.61
CNC(=O)COC1COC2(CCN(Cc3cccnc3)CC2)C1.O=C(O)C(F)(F)F (stereo not drawn)	13.69
O=C(O)C(F)(F)F.O=C(O)C(F)(F)F.[H][C@]12C[C@@H](CN3CCCC3)N(C)[C@@]1([H])CCN(C(=O)c1cccn1C)C2	5.557
CCC(=O)N1CCCCC1c1nc(CN(C)C(C)=O)cc(N(C)C)n1 (stereo not drawn)	5.644
Cc1nnc(NC(=O)NC(C)Cn2cccn2)s1 (stereo not drawn)	-2.625
O=C(NCCC(=O)N1CCCc2ccccc21)c1ccc(F)cc1F	-1.327
Cc1ccc(-c2nc(CN(Cc3cccs3)CC3CCCO3)no2)cc1 (stereo not drawn)	-5.249
Cc1n[nH]c(C)c1CCC(=O)N1CCC(O)(CN2CCN(C)CC2)C1 (stereo not drawn)	14.25
Cl.NCCC(=O)Nc1ccc(-c2ccccc2)cc1	-4.518
Cl.OC[C@H]1CC[C@]2(CC1)CN(Cc1ccccc1F)Cc1ccccc1O2	-1.54
CC(C)c1nc2n(n1)CC(NCc1nnnn1C1CC1)CC2 (stereo not drawn)	-3.36
Cn1ccc(C(=O)NC2CCC23CCN(C(=O)c2ccccn2)CC3)c1 (stereo not drawn)	10.94
Cc1ccc(C(=O)N2CCc3ncnc(-c4cnn(C)c4)c3CC2)o1	-12.89
c1c(CN2CCOCC2)nc2n1CCN(C1CCOCC1)C2	4.679
CC1CCCN(CC(=O)N2CCC(c3ncc4c(n3)CCNC4)CC2)C1 (stereo not drawn)	-26.41
CC(C)c1nnc(CNC2CCCN(Cc3noc(C4CC4)n3)C2)o1 (stereo not drawn)	5.272
COCCN1CCCC(O)(CN2CCN(c3ncccc3C)CC2)C1=O (stereo not drawn)	-22.47
COc1cccc(CN(C)c2ncc(C(N)=O)cc2Cl)c1	-1.434
O=C(Cc1cccc(F)c1F)NS(=O)(=O)c1ccc(Cl)cn1	2.525
CC(=O)N1CCN(C(=O)CCCc2nc(C(C)C)no2)CC1	10.12
COc1ccccc1CC(=O)NC1CCCc2cn[nH]c21 (stereo not drawn)	-6.63
Cl.NC(=O)C1CN(c2ccc(F)cc2)CCN1 (stereo not drawn)	26.61
O=C(NCc1ccccc1F)NCC(O)c1cccc(F)c1 (stereo not drawn)	8.136
Cc1cncc(C(=O)N2CCCCC2c2nc(C)cs2)c1 (stereo not drawn)	7.032
N#Cc1ccc(CNCCc2cc(F)cc3c2OCOC3)cc1	6.661
[H][C@@]12CCN(C(=O)c3cccnc3OC)C[C@@]1([H])O[C@H](C)C2	2.851
Cc1csc(N2CCCN(C(=O)c3occc3C)CC2)n1	6.441
CCC(C)(CNC(=O)Nc1nncs1)N1CCOCC1 (stereo not drawn)	-10.58 & 6.07
CC(C)NC(=O)CC1CC2(CCN(S(C)(=O)=O)CC2)c2ccccc21 (stereo not drawn)	-13.24
Cc1cccc(N2CCN(CCS(=O)(=O)c3ccc(Br)cc3)CC2)c1C	3.684
N#Cc1ccsc1NC(=O)CN1CCOC(Cn2cccn2)C1 (stereo not drawn)	19.13
O=C(c1ccc(C2CCCO2)s1)N1Cc2ccccc2C1 (stereo not drawn)	-3.474 & -5.294 & -6.784

Once more, the final 6:

| compound | percent effect |
|---|---|
| `Cc1csc(N2CCCN(C(=O)c3occc3C)CC2)n1` | 6.441 |
| `CCC(C)(CNC(=O)Nc1nncs1)N1CCOCC1` (stereo not drawn) | -10.58 & 6.07 |
| `CC(C)NC(=O)CC1CC2(CCN(S(C)(=O)=O)CC2)c2ccccc21` (stereo not drawn) | -13.24 |
| `Cc1cccc(N2CCN(CCS(=O)(=O)c3ccc(Br)cc3)CC2)c1C` | 3.684 |
| `N#Cc1ccsc1NC(=O)CN1CCOC(Cn2cccn2)C1` (stereo not drawn) | 19.13 |
| `O=C(c1ccc(C2CCCO2)s1)N1Cc2ccccc2C1` (stereo not drawn) | -3.474 & -5.294 & -6.784 |